Binding data for one substance are collected here from publication PMC11264600.

Amino acid sequences for entries named in this document (tags omitted).
UniProt Q08211: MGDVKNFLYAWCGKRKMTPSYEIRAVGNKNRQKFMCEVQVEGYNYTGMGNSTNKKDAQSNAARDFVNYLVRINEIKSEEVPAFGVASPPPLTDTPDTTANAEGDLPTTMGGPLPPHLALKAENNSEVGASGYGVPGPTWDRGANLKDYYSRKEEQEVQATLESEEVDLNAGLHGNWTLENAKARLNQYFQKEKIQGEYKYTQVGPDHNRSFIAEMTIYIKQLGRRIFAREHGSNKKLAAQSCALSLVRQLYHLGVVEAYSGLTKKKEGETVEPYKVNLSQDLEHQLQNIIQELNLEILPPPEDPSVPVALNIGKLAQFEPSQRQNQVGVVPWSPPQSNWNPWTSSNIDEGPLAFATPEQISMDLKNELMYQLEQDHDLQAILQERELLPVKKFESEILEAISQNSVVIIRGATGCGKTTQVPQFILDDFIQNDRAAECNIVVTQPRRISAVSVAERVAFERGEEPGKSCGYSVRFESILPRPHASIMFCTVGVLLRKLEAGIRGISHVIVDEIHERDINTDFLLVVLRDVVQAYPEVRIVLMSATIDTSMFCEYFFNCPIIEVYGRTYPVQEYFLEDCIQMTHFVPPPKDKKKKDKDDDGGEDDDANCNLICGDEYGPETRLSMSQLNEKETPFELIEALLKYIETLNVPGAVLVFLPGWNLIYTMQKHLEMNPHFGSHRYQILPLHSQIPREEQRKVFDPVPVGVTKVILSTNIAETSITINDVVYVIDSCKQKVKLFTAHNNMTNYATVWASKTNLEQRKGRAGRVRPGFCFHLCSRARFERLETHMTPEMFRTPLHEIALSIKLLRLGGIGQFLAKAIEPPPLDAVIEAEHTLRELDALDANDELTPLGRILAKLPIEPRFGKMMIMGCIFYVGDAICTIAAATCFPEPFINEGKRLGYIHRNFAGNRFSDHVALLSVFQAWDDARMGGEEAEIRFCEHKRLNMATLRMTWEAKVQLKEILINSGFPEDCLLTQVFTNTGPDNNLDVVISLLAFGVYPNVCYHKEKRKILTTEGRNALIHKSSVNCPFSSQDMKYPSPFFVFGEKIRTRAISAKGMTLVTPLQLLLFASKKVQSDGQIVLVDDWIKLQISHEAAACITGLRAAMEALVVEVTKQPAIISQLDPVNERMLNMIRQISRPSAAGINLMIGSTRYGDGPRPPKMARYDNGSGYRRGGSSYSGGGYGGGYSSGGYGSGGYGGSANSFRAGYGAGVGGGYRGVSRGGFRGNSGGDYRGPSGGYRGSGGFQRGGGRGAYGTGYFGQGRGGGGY
UniProt P03496: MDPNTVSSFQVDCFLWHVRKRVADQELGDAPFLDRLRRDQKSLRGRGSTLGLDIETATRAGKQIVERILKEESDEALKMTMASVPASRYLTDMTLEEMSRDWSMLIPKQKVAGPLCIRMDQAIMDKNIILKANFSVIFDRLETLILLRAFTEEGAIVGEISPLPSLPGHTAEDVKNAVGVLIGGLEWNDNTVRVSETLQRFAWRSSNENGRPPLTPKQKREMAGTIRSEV

No constants are given. Whether binding was seen depends on the method and setting. In cells and extracts the contact can be indirect. Some binding calls cover weakened binding; strength is not graded here.

The target of the test is DHX9 (DExH-box helicase 9) (human (endogenous in A549 or HEK293T)) (UniProt Q08211). The test can be described thus: co-IP.

With “influenza A virus nonstructural protein 1 (NS1) (from UniProt P03496 1-230)”, the binding result was “binds”.
